These results are taken from PMC4673504.

Protein sequences, listed by entry. Tags and fused reporters are not part of them.
UniProt P50750: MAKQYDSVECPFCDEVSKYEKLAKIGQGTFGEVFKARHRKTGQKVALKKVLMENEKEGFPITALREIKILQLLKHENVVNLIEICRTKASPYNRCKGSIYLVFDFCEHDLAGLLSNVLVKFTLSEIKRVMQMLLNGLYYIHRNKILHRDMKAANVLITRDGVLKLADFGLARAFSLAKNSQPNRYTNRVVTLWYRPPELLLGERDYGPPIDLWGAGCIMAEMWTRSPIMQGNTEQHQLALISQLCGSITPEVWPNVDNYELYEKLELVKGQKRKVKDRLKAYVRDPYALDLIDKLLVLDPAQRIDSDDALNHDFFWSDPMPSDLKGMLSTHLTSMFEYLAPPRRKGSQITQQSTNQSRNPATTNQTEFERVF

These are yes or no findings as the source states them, for the method shown. In cells and extracts the contact can be indirect. Some results given as binding are weak or reduced against the parent protein; the word gives no strength. Tags and fused reporters may be left off the sequences shown.

The target in the experiment is T1, FLAG-tagged AF4 (human) (UniProt P51825).
T1 sequence: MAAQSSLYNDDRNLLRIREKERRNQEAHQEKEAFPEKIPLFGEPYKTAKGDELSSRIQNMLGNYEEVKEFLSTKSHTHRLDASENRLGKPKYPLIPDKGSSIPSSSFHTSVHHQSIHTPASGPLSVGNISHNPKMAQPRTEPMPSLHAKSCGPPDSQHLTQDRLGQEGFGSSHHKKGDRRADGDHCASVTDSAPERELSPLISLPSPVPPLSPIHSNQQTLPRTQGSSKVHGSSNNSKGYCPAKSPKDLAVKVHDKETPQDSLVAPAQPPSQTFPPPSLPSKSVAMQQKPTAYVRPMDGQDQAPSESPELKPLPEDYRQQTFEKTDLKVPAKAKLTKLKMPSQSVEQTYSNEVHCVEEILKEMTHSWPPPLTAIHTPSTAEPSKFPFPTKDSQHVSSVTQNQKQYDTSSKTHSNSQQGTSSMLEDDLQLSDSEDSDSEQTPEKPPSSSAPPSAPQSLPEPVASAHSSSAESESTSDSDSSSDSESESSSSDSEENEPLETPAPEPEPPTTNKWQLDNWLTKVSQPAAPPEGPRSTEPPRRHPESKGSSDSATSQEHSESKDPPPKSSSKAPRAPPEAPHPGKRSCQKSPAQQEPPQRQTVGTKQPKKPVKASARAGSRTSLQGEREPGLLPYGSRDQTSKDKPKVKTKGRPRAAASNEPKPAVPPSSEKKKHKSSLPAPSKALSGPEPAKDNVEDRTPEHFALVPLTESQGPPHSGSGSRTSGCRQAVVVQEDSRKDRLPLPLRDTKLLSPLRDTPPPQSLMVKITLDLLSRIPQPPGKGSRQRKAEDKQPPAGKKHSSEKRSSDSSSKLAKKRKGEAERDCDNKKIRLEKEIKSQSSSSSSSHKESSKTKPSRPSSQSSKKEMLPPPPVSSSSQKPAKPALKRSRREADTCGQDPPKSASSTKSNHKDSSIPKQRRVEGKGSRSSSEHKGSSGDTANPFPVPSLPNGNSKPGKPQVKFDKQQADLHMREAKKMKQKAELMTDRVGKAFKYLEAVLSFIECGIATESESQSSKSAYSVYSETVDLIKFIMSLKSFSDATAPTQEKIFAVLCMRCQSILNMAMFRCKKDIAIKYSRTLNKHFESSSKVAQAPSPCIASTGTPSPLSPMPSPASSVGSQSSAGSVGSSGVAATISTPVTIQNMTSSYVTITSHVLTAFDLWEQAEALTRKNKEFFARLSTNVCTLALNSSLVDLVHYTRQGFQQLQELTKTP
As to the kind of experiment: co-IP; fanChIP–WB: chromatin fraction of 293T or 293T–LUC cells (cytoskeleton buffer extraction, MNase, lysis buffer), anti-FLAG M2 beads, five washes, western blot; SL1 components endogenous or exogenously expressed (one by one or all together); for the MLL fusions with co-expressed xAF4 and MENIN-HA. For orientation: In western blotting, separated proteins are transferred to a membrane and probed.

With CDK9 (from UniProt P50750 1-372), the binding result is given as “binds”.

B1: TAF1C (endogenous) (protein, UniProt Q15572 1-869)
chain: MDFPSSLRPALFLTGPLGLSDVPDLSFMCSWRDALTLPEAQPQNSENGALHVTKDLLWEPATPGPLPMLPPLIDPWDPGLTARDLLFRGGCRYRKRPRVVLDVTEQISRFLLDHGDVAFAPLGKLMLENFKLEGAGSRTKKKTVVSVKKLLQDLGGHQPWGCPWAYLSNRQRRFSILGGPILGTSVASHLAELLHEELVLRWEQLLLDEACTGGALAWVPGRTPQFGQLVYPAGGAQDRLHFQEVVLTPGDNPQFLGKPGRIQLQGPVRQVVTCTVQGESKALIYTFLPHWLTCYLTPGPFHPSSALLAVRSDYHCAVWKFGKQWQPTLLQAMQVEKGATGISLSPHLPGELAICSRSGAVCLWSPEDGLRQIYRDPETLVFRDSSSWRWADFTAHPRVLTVGDRTGVKMLDTQGPPGCGLLLFRLGAEASCQKGERVLLTQYLGHSSPKCLPPTLHLVCTQFSLYLVDERLPLVPMLKWNHGLPSPLLLARLLPPPRPSCVQPLLLGGQGGQLQLLHLAGEGASVPRLAGPPQSLPSRIDSLPAFPLLEPKIQWRLQERLKAPTIGLAAVVPPLPSAPTPGLVLFQLSAAGDVFYQQLRPQVDSSLRRDAGPPGDTQPDCHAPTASWTSQDTAGCSQWLKALLKVPLAPPVWTAPTFTHRQMLGSTELRREEEEGQRLGVLRKAMARGQLLLQRDLGSLPAAEPPPAPESGLEDKLSERLGEAWAGRGAAWWERQQGRTSEPGRQTRRPKRRTQLSSSFSLSGHVDPSEDTSSPHSPEWPPADALPLPPTTPPSQELTPDACAQGVPSEQRQMLRDYMAKLPPQRDTPGCATTPPHSQASSVRATRSQQHTPVLSSSQPLRKKPRMGF
For the molecule B1, the binding result was “binds”.

B2: ENL (protein, UniProt Q03111 1-559)
chain: MDNQCTVQVRLELGHRAQLRKKPTTEGFTHDWMVFVRGPEQCDIQHFVEKVVFWLHDSFPKPRRVCKEPPYKVEESGYAGFIMPIEVHFKNKEEPRKVCFTYDLFLNLEGNPPVNHLRCEKLTFNNPTTEFRYKLLRAGGVMVMPEGADTVSRPSPDYPMLPTIPLSAFSDPKKTKPSHGSKDANKESSKTSKPHKVTKEHRERPRKDSESKSSSKELEREQAKSSKDTSRKLGEGRLPKEEKAPPPKAAFKEPKMALKETKLESTSPKGGPPPPPPPPPRASSKRPATADSPKPSAKKQKKSSSKGSRSAPGTSPRTSSSSSFSDKKPAKDKSSTRGEKVKAESEPREAKKALEVEESNSEDEASFKSESAQSSPSNSSSSSDSSSDSDFEPSQNHSQGPLRSMVEDLQSEESDEDDSSSGEEAAGKTNPGRDSRLSFSDSESDNSADSSLPSREPPPPQKPPPPNSKVSGRRSPESCSKPEKILKKGTYDKAYTDELVELHRRLMALRERNVLQQIVNLIEETGHFNVTNTTFDFDLFSLDETTVRKLQSCLEAVAT
As for B2, the binding result was “binds”.
